Some of the results follow.

Sequences of proteins named here, by UniProt entry; tags and fusion partners are left off. A change or cut given only in a name is not applied to a line headed by its entry.
UniProt Q8NBT0: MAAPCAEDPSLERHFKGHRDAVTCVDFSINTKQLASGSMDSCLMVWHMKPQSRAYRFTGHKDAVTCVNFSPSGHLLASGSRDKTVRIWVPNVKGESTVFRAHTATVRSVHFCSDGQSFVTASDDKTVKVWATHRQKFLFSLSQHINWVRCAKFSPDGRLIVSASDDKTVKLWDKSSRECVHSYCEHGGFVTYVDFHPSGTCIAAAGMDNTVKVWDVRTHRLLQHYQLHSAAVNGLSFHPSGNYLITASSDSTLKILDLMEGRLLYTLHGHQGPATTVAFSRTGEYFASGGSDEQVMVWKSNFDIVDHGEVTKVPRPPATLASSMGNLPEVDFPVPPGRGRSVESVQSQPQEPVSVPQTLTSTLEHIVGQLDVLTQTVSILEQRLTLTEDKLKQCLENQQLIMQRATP
UniProt O95707: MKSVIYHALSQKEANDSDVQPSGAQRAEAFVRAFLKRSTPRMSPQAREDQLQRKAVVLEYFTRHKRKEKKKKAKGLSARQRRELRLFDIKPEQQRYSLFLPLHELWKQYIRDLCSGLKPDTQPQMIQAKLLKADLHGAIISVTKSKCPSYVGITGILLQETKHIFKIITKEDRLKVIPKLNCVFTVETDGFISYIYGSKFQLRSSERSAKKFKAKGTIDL
UniProt Q9P215: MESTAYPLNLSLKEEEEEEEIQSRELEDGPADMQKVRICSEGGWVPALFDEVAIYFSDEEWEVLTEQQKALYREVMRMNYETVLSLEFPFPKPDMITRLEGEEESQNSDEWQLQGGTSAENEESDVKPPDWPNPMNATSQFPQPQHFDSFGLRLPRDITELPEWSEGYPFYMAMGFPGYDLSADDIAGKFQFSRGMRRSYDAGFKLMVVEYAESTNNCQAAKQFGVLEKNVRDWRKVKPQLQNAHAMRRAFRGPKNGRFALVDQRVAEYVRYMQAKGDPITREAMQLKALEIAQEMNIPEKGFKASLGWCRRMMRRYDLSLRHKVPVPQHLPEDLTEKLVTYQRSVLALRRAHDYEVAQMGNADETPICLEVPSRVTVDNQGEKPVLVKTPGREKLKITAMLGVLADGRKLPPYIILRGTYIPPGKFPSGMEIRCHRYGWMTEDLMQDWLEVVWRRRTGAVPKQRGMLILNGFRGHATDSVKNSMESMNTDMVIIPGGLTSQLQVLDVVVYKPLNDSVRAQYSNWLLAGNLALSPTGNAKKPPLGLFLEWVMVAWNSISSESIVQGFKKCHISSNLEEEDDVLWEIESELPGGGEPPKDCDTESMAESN
UniProt Q14651: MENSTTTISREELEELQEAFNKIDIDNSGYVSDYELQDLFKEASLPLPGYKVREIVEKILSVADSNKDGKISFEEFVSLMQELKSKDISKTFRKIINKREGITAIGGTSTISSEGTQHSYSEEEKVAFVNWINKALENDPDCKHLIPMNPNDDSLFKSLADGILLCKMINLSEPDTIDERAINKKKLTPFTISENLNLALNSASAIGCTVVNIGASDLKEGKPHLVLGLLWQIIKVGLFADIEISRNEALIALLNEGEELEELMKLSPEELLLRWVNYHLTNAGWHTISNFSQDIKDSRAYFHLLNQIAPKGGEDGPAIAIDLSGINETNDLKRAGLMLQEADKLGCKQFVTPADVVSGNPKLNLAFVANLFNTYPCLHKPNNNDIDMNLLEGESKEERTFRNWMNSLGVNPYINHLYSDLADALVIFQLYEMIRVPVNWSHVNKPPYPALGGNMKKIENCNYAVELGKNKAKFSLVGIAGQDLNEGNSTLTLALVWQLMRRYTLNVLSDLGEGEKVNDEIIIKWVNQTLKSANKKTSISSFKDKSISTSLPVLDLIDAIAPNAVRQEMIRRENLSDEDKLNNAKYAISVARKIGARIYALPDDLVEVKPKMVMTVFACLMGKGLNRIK
UniProt Q9H307: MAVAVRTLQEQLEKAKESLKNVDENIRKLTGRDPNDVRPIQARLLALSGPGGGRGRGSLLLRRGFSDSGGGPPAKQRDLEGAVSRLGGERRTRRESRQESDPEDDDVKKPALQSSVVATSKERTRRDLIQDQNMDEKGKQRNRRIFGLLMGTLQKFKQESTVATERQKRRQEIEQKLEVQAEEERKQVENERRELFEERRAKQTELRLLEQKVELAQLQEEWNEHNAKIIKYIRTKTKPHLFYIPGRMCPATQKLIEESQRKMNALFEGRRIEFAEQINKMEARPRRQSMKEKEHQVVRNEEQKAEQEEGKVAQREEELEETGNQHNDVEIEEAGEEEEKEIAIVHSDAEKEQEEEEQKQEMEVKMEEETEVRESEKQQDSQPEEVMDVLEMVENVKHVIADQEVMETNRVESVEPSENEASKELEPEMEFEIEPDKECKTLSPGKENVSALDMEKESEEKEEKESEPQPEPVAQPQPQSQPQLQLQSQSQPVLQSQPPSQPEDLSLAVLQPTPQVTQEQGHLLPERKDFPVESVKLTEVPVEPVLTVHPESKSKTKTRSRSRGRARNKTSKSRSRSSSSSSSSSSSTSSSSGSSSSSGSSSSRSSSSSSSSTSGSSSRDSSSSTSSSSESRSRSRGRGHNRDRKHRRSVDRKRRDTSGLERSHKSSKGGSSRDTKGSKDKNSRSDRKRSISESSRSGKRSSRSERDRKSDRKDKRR
UniProt P0CG38, whole entry, looked up: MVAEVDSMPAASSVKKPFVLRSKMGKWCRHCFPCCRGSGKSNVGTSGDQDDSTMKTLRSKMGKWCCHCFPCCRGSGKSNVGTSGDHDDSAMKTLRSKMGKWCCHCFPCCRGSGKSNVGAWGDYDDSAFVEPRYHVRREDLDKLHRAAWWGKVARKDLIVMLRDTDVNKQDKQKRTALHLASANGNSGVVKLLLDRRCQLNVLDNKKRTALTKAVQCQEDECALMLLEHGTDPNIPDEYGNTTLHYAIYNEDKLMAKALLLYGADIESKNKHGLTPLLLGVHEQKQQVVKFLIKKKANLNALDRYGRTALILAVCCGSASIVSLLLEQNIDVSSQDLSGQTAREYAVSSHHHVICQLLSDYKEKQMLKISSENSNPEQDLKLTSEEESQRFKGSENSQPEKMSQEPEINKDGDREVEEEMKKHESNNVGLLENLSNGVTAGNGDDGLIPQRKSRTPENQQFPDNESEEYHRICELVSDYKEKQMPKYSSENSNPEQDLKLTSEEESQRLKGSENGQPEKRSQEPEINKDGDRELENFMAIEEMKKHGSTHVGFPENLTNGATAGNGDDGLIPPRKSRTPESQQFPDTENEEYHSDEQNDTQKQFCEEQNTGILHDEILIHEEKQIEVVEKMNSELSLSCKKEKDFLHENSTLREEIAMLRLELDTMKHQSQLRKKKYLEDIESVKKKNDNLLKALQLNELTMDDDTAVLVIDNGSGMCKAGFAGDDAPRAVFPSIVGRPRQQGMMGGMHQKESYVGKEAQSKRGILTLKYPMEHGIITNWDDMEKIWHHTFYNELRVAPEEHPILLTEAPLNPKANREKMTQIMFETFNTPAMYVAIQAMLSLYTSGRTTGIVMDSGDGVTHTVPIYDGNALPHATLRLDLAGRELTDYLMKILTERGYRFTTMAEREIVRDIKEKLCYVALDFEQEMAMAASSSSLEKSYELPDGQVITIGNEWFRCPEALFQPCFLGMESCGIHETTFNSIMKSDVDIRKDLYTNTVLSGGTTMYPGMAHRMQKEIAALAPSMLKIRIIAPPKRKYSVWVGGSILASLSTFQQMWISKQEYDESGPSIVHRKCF
UniProt Q15063: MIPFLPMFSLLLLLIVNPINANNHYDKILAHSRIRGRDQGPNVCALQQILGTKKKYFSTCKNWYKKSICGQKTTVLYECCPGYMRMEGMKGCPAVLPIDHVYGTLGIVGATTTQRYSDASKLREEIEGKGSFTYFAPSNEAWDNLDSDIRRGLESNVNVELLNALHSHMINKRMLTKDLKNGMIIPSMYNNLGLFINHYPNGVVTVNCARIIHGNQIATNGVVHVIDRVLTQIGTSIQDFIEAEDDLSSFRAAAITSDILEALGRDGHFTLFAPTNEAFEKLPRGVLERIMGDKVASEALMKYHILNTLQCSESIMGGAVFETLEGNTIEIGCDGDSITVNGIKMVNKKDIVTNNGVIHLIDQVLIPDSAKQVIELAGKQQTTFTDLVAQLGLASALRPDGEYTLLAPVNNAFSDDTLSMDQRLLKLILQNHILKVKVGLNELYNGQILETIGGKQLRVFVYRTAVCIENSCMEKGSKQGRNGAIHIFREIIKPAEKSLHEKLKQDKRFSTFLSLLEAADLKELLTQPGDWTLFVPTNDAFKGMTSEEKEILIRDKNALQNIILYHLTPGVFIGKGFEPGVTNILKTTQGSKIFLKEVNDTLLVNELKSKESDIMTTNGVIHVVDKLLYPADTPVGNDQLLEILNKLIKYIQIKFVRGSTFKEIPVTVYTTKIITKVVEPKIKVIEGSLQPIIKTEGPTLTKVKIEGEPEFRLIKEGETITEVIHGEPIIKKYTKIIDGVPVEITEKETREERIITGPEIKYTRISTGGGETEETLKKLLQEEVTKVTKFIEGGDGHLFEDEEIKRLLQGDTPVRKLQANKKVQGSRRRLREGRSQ
UniProt Q7Z3K3: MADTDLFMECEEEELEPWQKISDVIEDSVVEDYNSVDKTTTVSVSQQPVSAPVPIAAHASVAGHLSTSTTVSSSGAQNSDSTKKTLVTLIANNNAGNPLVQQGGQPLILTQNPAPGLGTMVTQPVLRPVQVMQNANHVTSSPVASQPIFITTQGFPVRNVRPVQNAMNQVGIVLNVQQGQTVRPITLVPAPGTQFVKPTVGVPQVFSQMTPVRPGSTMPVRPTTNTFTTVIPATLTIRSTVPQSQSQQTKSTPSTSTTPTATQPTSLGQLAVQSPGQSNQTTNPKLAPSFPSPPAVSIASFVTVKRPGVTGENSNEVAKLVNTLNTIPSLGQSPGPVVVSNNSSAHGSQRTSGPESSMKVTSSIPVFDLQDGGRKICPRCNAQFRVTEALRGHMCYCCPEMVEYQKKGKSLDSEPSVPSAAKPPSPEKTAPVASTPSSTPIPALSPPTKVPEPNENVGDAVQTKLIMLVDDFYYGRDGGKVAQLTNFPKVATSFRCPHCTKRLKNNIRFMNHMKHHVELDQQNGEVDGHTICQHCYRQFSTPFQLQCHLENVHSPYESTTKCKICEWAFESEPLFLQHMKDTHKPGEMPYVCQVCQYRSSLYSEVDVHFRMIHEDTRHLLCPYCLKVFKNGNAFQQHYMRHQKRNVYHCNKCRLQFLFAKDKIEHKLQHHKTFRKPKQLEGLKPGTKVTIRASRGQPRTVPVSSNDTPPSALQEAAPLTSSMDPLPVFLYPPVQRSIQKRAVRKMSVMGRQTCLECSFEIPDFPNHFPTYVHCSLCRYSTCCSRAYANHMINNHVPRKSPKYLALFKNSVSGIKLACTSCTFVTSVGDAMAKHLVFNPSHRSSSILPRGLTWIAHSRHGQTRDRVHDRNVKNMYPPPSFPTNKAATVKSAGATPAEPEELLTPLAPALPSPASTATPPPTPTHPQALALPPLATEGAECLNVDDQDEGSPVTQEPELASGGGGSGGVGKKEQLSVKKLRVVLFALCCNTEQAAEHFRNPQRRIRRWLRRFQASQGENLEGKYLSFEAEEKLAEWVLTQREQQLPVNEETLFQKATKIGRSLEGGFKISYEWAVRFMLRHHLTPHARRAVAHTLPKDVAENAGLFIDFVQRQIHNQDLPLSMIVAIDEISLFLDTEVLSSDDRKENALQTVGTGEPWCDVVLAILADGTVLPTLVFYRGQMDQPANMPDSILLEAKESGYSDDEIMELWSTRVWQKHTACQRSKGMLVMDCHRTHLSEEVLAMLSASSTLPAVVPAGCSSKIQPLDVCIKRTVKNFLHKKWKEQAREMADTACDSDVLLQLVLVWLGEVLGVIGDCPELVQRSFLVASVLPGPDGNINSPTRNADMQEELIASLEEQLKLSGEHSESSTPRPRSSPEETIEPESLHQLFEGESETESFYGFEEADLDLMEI
UniProt Q15181: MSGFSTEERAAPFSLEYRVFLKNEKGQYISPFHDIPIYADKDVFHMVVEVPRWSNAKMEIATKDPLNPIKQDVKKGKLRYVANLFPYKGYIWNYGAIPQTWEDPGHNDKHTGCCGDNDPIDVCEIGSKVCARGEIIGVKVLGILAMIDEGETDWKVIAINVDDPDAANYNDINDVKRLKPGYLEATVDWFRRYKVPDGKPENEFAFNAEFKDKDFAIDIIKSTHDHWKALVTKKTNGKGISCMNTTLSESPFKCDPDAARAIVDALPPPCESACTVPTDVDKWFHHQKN
UniProt Q9NRY6: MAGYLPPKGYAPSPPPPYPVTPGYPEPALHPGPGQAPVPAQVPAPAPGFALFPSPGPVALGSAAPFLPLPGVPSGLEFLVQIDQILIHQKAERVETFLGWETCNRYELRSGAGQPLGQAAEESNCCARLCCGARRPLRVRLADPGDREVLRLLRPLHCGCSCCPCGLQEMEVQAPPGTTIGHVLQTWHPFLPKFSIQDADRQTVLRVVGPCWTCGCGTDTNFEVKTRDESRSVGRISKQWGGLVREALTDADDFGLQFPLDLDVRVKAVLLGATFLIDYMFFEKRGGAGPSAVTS

Compound in the assay: NCC(=O)Nc1ccc(-n2nc(C(F)(F)F)cc2-c2ccc3c(ccc4ccccc43)c2)cc1
As to the kind of experiment: log2 fold change, soluble protein after heating vs DMSO (PISA); higher = thermal stabilisation; K562 lysate, 10 uM; active = over 0.2 and 3.5 SD of the protein, either way, in both replicates (recomputed). The procedure, abridged: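 Log-two fold change in thermal stability relative to solvent controls is reported from duplicates. For each sample, crude K562 extract from dounce-homogenised pellets in PBS pH 7.4 with 1 mM MgCl2, at 1 mg/mL protein, was treated with 10 μM compound for 30 min. Aliquots heated for 3 min across 48°C-58°C were pooled, brought to 0.5% NP-40 at 4°C and cleared at 21,000xg for 90 min. The supernatant was quantified by TMTpro 16plex LC-MS/MS with channel sums equalised.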
Regarding POLR2A, A0A590UJN4, the log2 fold change is inactive: 0.012.

Turning to PML isoform 11 (UniProt P29590), the log2 fold change is inactive: 0.032.

Regarding PPAT (UniProt Q06203), the log2 fold change is inactive: 0.013.

Turning to PLEKHG4 (UniProt Q58EX7), the log2 fold change is inactive: -0.017.

PM20D2 (UniProt Q8IYS1): the log2 fold change is inactive: -0.034.

PLEKHH2 (UniProt E5RGK1): the log2 fold change is inactive: 0.089.

For POC1A (UniProt Q8NBT0), the log2 fold change is inactive: -0.163.

For POP4 (UniProt O95707), the log2 fold change is inactive: 0.041.

On to PLOD2 isoform 2 (UniProt O00469), for which the log2 fold change is inactive: -0.103.

POLR2B (UniProt P30876): the log2 fold change was inactive: 0.03.

On to POGK (UniProt Q9P215), for which the log2 fold change was inactive: 0.018.

On to PLS1 (UniProt Q14651), for which the log2 fold change is inactive: 0.022.

As for POFUT2 (UniProt Q9Y2G5), the log2 fold change was inactive: -0.022.

Take POLR2K (UniProt P53803): the log2 fold change was inactive: -0.08.

For the target PLIN3 (UniProt O60664), the log2 fold change is inactive: 0.008.

Turning to PNN (UniProt Q9H307), the log2 fold change was inactive: 0.027.

In the case of PNPLA4 (UniProt P41247), the log2 fold change is inactive: -0.012.

As for POTEI (UniProt P0CG38), the log2 fold change is inactive: 0.031.

Consider PLP2 (UniProt Q04941), for which the log2 fold change is inactive: -0.027.

In the case of POSTN (UniProt Q15063), the log2 fold change is inactive: -0.096.

As for POGZ (UniProt Q7Z3K3), the log2 fold change was inactive: 0.021.

On to PPA1 (UniProt Q15181), for which the log2 fold change is inactive: 0.012.

In the case of POC1B (UniProt Q8TC44), the log2 fold change is inactive: 0.108.

On to PLSCR3 (UniProt Q9NRY6), for which the log2 fold change is inactive: 0.136.

Source of the values: the supplement of paper PMC10849652.
